This is an account of results in the supplement of paper PMC12819154, “High-throughput peptide-centric local stability assay extends protein–ligand identification to membrane proteins, tissues and bacteria” (Nature Structural & Molecular Biology, 2025).

Sequences of proteins named here, by UniProt entry; tags and fusion partners are left off. A change or cut given only in a name is not applied to a line headed by its entry.
UniProt P49135: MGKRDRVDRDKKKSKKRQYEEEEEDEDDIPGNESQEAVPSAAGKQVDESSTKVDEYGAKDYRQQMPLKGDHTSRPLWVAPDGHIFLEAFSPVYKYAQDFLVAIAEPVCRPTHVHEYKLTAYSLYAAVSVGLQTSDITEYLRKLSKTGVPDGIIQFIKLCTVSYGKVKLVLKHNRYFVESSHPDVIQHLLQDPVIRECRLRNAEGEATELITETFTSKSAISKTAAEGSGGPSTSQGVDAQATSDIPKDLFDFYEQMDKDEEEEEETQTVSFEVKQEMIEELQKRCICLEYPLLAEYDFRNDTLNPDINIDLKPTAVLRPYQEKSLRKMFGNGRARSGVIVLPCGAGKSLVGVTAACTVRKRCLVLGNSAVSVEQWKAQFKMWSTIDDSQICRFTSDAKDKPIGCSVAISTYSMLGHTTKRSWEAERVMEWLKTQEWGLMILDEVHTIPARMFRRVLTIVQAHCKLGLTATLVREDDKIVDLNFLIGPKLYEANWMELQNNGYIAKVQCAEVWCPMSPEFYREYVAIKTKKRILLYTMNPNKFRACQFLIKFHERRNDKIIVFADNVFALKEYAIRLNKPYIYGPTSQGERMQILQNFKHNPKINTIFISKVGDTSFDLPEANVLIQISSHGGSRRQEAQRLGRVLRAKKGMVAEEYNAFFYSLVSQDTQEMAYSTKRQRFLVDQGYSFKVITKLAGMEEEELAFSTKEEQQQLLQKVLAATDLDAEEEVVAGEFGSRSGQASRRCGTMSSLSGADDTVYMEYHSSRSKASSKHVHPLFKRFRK
UniProt P42859: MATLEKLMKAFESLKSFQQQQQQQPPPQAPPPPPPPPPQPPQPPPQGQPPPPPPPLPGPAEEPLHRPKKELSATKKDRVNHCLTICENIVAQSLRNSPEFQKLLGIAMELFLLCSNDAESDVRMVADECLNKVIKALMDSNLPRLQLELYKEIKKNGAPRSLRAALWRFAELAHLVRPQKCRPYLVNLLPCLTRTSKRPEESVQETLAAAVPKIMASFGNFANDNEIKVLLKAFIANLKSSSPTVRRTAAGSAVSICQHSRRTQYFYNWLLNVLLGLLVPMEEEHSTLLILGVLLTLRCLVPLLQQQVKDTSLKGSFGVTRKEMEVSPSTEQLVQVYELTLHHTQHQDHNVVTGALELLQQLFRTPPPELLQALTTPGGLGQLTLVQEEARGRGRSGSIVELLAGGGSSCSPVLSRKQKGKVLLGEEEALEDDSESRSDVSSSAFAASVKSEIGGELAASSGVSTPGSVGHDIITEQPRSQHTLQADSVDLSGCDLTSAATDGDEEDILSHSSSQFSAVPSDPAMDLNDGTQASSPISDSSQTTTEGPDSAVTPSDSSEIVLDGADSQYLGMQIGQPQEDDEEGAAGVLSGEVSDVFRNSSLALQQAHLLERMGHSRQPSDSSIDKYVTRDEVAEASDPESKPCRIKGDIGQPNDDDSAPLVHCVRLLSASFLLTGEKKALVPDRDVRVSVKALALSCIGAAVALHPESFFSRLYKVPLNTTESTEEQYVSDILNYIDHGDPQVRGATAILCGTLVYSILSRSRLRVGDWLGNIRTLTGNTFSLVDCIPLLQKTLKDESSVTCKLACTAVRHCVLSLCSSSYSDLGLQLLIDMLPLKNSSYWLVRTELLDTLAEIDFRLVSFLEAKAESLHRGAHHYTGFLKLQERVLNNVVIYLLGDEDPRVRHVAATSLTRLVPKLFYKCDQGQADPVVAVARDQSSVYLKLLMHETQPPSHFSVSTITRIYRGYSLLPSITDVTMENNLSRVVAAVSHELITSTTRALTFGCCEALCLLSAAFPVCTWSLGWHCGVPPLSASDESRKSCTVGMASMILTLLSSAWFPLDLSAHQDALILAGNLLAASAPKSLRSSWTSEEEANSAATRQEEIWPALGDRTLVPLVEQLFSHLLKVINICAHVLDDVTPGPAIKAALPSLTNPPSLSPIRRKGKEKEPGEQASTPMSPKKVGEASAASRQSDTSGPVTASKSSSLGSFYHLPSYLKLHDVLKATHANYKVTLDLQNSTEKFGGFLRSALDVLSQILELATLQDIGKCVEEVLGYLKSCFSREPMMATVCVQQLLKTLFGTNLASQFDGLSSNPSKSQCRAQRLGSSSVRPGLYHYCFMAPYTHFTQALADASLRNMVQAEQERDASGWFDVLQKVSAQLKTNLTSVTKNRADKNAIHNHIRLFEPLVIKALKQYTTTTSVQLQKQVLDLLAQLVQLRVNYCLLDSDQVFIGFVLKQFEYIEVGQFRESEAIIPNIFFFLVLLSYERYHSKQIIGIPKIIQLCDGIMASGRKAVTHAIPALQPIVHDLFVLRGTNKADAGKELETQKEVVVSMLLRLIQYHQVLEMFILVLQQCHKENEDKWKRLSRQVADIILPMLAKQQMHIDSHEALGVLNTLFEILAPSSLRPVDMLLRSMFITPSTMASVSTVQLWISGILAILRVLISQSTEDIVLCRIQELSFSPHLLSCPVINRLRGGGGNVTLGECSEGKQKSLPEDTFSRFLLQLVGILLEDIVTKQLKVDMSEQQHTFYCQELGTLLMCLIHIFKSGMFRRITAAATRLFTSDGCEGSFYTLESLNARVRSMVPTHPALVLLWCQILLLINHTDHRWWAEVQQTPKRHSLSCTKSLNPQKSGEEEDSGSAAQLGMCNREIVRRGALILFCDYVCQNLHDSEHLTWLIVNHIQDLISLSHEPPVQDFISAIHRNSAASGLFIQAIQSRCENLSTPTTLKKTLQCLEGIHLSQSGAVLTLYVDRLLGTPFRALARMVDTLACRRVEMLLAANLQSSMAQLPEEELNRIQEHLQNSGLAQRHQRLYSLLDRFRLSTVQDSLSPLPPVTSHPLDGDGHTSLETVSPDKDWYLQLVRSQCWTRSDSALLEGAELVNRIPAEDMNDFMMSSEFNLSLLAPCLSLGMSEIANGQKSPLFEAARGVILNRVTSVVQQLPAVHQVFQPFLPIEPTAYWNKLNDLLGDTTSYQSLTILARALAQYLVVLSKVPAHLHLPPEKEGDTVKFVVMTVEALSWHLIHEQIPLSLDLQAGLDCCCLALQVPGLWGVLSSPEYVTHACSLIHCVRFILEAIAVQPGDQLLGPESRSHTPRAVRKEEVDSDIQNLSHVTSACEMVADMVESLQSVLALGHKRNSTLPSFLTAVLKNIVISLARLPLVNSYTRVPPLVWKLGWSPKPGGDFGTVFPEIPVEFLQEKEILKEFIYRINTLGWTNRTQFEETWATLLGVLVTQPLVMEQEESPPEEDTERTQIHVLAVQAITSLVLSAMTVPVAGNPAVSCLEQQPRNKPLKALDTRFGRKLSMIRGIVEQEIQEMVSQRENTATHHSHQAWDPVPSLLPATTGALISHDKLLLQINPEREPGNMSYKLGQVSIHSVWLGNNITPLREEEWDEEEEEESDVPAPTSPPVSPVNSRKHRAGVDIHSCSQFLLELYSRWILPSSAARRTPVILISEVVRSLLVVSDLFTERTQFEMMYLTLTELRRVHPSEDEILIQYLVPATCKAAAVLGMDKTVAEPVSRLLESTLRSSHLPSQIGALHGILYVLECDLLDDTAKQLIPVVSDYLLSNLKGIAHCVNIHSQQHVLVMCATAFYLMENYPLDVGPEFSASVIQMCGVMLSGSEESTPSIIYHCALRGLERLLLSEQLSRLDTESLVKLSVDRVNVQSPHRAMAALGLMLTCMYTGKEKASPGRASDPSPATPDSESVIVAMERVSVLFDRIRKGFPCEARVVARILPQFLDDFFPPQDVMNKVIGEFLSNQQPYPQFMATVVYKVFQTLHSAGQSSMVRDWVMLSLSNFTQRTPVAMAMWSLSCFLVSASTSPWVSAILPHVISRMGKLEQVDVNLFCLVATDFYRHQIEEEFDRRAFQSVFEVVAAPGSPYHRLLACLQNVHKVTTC
UniProt P51125: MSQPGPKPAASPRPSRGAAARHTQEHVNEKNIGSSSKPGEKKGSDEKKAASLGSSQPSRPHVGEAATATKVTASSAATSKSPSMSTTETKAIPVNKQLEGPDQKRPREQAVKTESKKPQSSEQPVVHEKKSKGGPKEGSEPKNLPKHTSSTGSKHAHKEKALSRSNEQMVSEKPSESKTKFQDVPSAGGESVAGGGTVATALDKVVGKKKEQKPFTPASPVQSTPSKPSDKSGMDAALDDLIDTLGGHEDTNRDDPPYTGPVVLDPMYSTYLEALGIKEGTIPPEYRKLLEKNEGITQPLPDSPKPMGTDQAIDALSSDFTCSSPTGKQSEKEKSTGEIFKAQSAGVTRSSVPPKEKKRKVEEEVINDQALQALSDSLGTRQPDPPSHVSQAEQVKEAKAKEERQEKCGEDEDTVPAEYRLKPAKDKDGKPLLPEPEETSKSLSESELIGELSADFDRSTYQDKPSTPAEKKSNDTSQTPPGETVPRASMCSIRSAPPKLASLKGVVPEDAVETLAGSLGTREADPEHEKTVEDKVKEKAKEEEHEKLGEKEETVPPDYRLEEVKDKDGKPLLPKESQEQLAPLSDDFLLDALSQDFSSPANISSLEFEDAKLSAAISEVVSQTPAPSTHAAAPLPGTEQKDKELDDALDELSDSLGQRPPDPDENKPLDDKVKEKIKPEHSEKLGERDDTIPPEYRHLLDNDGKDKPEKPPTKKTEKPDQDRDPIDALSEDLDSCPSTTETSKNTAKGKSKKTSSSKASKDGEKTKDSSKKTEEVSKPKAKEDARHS
UniProt P35428: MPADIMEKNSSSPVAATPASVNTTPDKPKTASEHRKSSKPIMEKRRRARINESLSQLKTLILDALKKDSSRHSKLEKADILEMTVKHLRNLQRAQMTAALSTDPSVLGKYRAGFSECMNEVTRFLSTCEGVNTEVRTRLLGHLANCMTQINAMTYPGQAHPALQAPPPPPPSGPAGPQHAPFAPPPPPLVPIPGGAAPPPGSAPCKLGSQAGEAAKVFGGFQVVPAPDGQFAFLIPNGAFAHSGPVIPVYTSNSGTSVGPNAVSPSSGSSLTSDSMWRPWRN
UniProt P49919: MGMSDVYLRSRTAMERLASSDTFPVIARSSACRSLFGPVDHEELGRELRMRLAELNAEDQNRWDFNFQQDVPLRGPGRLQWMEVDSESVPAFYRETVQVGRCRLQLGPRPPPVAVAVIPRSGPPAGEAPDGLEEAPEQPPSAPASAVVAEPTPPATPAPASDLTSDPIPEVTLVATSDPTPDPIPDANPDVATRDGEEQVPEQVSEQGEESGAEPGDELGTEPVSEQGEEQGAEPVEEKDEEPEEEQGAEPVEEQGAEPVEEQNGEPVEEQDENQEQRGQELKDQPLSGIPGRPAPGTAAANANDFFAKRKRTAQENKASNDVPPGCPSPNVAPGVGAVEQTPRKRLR
UniProt P51885: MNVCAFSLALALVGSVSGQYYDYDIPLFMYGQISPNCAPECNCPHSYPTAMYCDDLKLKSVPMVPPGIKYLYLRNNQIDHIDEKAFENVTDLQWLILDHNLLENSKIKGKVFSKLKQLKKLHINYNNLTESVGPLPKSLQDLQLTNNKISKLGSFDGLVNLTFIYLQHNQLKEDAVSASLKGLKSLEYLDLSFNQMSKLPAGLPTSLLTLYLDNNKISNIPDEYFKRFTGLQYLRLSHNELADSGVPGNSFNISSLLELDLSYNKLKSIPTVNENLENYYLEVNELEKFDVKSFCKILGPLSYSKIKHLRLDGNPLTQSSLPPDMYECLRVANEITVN
UniProt P38647: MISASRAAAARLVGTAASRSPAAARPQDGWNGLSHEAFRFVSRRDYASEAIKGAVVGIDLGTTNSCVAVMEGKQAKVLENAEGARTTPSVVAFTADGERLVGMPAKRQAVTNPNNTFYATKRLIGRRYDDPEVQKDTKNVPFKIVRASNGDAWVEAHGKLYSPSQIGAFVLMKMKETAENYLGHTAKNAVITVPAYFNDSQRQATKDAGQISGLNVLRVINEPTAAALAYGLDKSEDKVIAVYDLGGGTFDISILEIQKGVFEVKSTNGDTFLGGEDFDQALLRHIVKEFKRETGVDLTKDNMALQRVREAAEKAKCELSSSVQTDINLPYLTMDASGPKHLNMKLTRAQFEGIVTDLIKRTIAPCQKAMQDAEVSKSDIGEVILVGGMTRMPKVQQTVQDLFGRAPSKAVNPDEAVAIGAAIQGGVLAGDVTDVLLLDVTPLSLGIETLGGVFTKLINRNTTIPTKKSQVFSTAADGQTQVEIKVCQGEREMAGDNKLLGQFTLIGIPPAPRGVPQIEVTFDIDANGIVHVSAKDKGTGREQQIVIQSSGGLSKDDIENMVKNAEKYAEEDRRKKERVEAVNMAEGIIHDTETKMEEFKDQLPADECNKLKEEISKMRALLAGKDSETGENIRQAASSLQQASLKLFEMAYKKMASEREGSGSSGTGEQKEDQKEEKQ
UniProt P40338, whole entry: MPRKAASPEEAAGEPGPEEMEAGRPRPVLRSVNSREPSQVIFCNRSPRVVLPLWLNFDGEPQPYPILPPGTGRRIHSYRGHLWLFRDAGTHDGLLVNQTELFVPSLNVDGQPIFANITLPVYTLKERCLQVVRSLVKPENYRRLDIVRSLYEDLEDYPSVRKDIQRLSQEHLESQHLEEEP

The list shows a part of the results. Most entries show no effect beyond the scatter of the controls.

Compound in the test: CN[C@@H]1C[C@H]2O[C@@](C)([C@@H]1OC)n1c3ccccc3c3c4c(c5c6ccccc6n2c5c31)C(=O)NC4 [staurosporine]
The test is described as follows: log2 fold change of tryptic peptide abundance, ligand vs vehicle (limited proteolysis) (log2 ratio); higher = more trypsin-susceptible (destabilized). The conditions noted are these: ligand concentration: 20 uM; sample: mouse liver crude lysate; replicate design: treated separately.
“UniProt P53566 (peptide sequence: VLELTSDNDR, peptide start residue: 315)”: the log2 fold change was determined as 0.232.
Take “UniProt P43346 (peptide sequence: STFVNILK, peptide start residue: 35)”: the log2 fold change worked out at 0.161.
For “UniProt P49135 (peptide sequence: HVHPLFKR, peptide start residue: 773)” the value was -0.67; for “UniProt P46935 (peptide sequence: TGGSEIVVTNK, peptide start residue: 704)”, -0.565.
The result for “UniProt P36916 (peptide sequence: EQLMSQEER, peptide start residue: 142)” reads 0.133.
For “UniProt P42859 (peptide sequence: HVAATSLTR, peptide start residue: 905)” the value was -0.332.
As for “UniProt P51125 (peptide sequence: AKEEEHEKLGEK, peptide start residue: 540)”, the log2 fold change is -0.386.
On to “UniProt P41593 (peptide sequence: AGLSLPLSPR, peptide start residue: 512)”, for which the log2 fold change was -0.15.
In the case of “UniProt P48379 (peptide sequence: LEPVNAASFGK, peptide start residue: 457)”, the log2 fold change is 0.301.
The result for “UniProt P45700 (peptide sequence: FDGGVEAIATR, peptide start residue: 528)” reads -0.692; that for “UniProt P47758 (peptide sequence: SAAPSTLDSSSTAPAQLGKK, peptide start residue: 207)”, -0.0991; that for “UniProt P51863 (peptide sequence: AYLESFYK, peptide start residue: 188)”, -0.547.
“UniProt P47713 (peptide sequence: CSVSLSNVEAR, peptide start residue: 725)”: the log2 fold change was -0.0388.
For the target “UniProt P49710 (peptide sequence: KKELESGPK, peptide start residue: 70)”, the log2 fold change is -0.569.
On to “UniProt P42337 (peptide sequence: EAGFSYSHTGLSNR, peptide start residue: 503)”, for which the log2 fold change was -0.125.
For “UniProt P35428 (peptide sequence: ADILEMTVK, peptide start residue: 78)”, the log2 fold change is -0.204.
With “UniProt P46061 (peptide sequence: RCHWSDMFTGR, peptide start residue: 81)”, the log2 fold change is -0.591.
As for “UniProt P53810 (peptide sequence: QKDPVKGMTADD, peptide start residue: 260)”, the log2 fold change was -0.585.
Regarding “UniProt P52624 (peptide sequence: CSNITIIR, peptide start residue: 132)”, the log2 fold change is -0.505.
For “UniProt P53612 (peptide sequence: SDAPDTLLLEK, peptide start residue: 20)” the value was -0.672.
As for “UniProt P50295 (peptide sequence: TLTEILQHQIR, peptide start residue: 23)”, the log2 fold change was found to be 0.108.
For “UniProt P40124 (peptide sequence: VPTISINKTDGCHAYLSK, peptide start residue: 404)” the value was 0.485.
With “UniProt P49722 (peptide sequence: SVHKVEPITK, peptide start residue: 61)”, the log2 fold change was -0.273.
As for “UniProt P43136 (peptide sequence: AFQEQVDK, peptide start residue: 271)”, the log2 fold change stood at 0.382.
Take “UniProt P49919 (peptide sequence: LQLGPRPPPVAVAVIPR, peptide start residue: 104)”: the log2 fold change was determined as 0.527.
Take “UniProt P43406 (peptide sequence: ILACAPLYHWR, peptide start residue: 135)”: the log2 fold change was -0.205.
The result for “UniProt P51175 (peptide sequence: AVSVAVVNLQYR, peptide start residue: 311)” reads 0.211; that for “UniProt P43120 (peptide sequence: FSNDQTVELEK, peptide start residue: 145)”, -0.129.
Take “UniProt P51682 (peptide sequence: STGEHEVSTGL, peptide start residue: 344)”: the log2 fold change was -0.156.
On to “UniProt P51885 (peptide sequence: NNQIDHIDEK, peptide start residue: 75)”, for which the log2 fold change is -0.315.
Turning to “UniProt P38647 (peptide sequence: DQLPADECNK, peptide start residue: 601)”, the log2 fold change is 0.4.
For the target “UniProt P48678 (peptide sequence: SYLLGNSSPR, peptide start residue: 646)”, the log2 fold change was determined as 0.286.
Turning to “UniProt P49813 (peptide sequence: DREDLVPYTGEKR, peptide start residue: 80)”, the log2 fold change worked out at 0.246.
For “UniProt P48377 (peptide sequence: SVVQATPQTK, peptide start residue: 240)”, the log2 fold change is -0.331.
For “UniProt P40338 (peptide sequence: SLVKPENYR, peptide start residue: 134)”, the log2 fold change was determined as 0.357.
On to “UniProt P52482 (peptide sequence: GDNIYEWR, peptide start residue: 81)”, for which the log2 fold change was 0.0256.
For “UniProt P51655 (peptide sequence: MIYCSHCR, peptide start residue: 251)”, the log2 fold change was -0.321.
The result for “UniProt P42232 (peptide sequence: ATQLLEGLVQELQKK, peptide start residue: 57)” reads -0.344; that for “UniProt P35550 (peptide sequence: SKLAAAILGGVDQIHIKPGAK, peptide start residue: 148)”, -0.11.
